Earlier results in patent US20230293573A1 (priority 2020, published 2023).
At least one read-out could not be matched to a standard name with certainty.

Details: cited from earlier work

O=C(Nc1ccc([N+](=O)[O-])cc1Cl)c1cc(Cl)ccc1O [niclosamide, 2′,5-Dichloro-4′-nitrosalicylanilide]
BCS permeability: high permeability
